# Screening data

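Luminescence from an EWS-FLI1 target-promoter (NR0B1) reporter, set against a CMV-promoter reporter, two days after silencing single genes in TC32 Ewing sarcoma cells.
Each siRNA was applied at 20 nM.
A z-score of the log NR0B1-over-CMV signal, less the median of siRNAs with the same seed; more negative means a stronger specific loss of the NR0B1 reporter.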

The strongest results of the screen are mostly left out here.
Sequences are the guide (antisense) strand, without overhang.

Sequence | gene | seed-corrected z-score
AAUAGUAGGAUUGACAAUC | SORBS1 | 1.362
UUAGUCCUAAAUCAUAGGC | MNDA | 0.3769
UAUUCCAAAAAUCUGCAGC | PRAMEF12 | 0.7298
UUUGUUCAGGGCAUUUAGC | AKR1A1 | -0.1777
UACGUGAUCAGAGUCUCAC | CPED1 | -0.8037
AUUCGUUUUAGCCUUGGUC | ARHGAP29 | -0.6087
UUGAAUGGUAAUGUAGUCC | TECRL | -0.8647
UUCCCUAGUAUACCUGAUG | ERAS | -0.3921
UGUAGUUCUGAAUGUAGCC | PLPP3 | 0.6837
UUUUAAUCCACUAACUUGC | FOXP1 | -0.1641
GAUGUGGGCGCUGAAAUCU | LOC642355 | 0.9854
UAUAGAUAUACUGAACAUC | TIMP4 | 0.1874
UUUUCGAUGGGAUAAGUAG | COL24A1 | 0.136
UUAUCAUUAGGAUUCUCUG | LRP10 | 0.1554
UAAGAGUCCAGCAGACGUG | LOC401296 | -0.3308
AUUCCUCACAUACUUGUCU | BTN2A2 | -0.1212
UUUAUUCCGUUCCUUUUCC | MLN | -0.1895
UCGUAUUCAUACUUCAUCC | ERGIC2 | 0.3941
UGUAGAUAUUGUCUGAGGC | INSC | 0.8712
UCAGCUCUAACAGAACAUC | PCGF1 | 0.447
UAUGUUAUACCGGGUAUCA | PRR16 | 0.8266
UCAUGGUUAGUAGUCAUCG | C2orf40 | 1.465
UUCCUUUUGGUCACUGACC | NFATC2 | -0.9743
AUCAAUUACAAAUUGGACC | GRM8 | -0.1823
UUUGCAUGAAGCUAAACAG | ARID3C | 0.6555
UAUAGUACUGCUUAUGCUG | AEBP2 | -0.2505
UUAGGUAUUGUGGUGAAUC | DEPDC7 | 0.6646
UUGACUCCAAACCCGUUGC | KRT75 | 1.207
UAAUUGACCAGCACCAGUU | ERF | 1.726
UUGUCCUCAACAUACUCCU | RPLP1P3 | -0.2649
UUUGUCAAGGGUAUCCUCC | ECM1 | 0.0154
UCAGGAUCAUCAGAAAGGC | OR6C3 | 0.3462
AAUUCUGCUAUGUUCAGUU | ZNF85 | -1.166
UACGCUUUCUAGUUCCACC | C16orf72 | -0.0716
UAUUCGAUCUUCAGAGUGC | HNRNPL | 1.794
UAAUAGACCGCGCUGCUGG | SOX18 | 0.1244
ACUUGAUUCAGAUUCCACC | MPHOSPH8 | 1.936
AAACUUUCAGGAGUCCUUG | ROPN1L | 0.6987
UCUCUUAGUGCUGUAGCUG | SSSCA1 | 0.3039
UCACUAGGAAAGAUGAUUC | SMCP | 0.7511
UACCAGUUGAAGUUCUUCU | LOC729900 | -0.6384
ACUGAUAUACUCACUAUCG | ZMYND8 | -0.1587
UAAUCGUCCACAGAAGGCU | IRF8 | 0.01018
UGAUGUAAGCUCUCAAGCC | PPP2R5C | -0.4361
UUUAUUAUCAGGGUCACGG | NRSN2 | -0.06817
AUAUGUCAGAAGGACAUCC | ITFG1 | 0.194

Some entries from above, unchanged:

- UAAUUGACCAGCACCAGUU against ERF | seed-corrected z-score 1.726
- UUUUCGAUGGGAUAAGUAG against COL24A1 | seed-corrected z-score 0.136
- ACUUGAUUCAGAUUCCACC against MPHOSPH8 | seed-corrected z-score 1.936

The results are deposited in PubChem (AID1159506; NCATS, 2015).